4 molecules from patent US20230322957A1 can be followed below.

The chains behind the UniProt entries cited, without tags or fusion partners.
UniProt Q02223: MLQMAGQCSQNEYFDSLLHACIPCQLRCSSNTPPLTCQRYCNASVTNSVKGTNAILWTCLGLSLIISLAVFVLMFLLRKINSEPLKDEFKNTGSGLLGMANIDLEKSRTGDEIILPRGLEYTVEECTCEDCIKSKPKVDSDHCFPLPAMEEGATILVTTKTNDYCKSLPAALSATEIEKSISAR

Residue numbers refer to the chain shown, from its start. Results are given in words; binding and its absence hold for the method and conditions named. Some results given as binding are weak or reduced against the parent protein; the word gives no strength.

This assay deals with human BCMA on the cell surface (human) (UniProt Q02223). Description: flow cytometry on HEK-huBCMA cells, PE-labelled anti-human Fc secondary antibody, median fluorescence intensity.

B1: Mab 34 (antibody, V domains shown)
VH: EVQLLESGGGLVQPGGSLRLSCAASGFTFYTNAMGWVRQAPGKGLEWVSAINRFGGSTYYADSVKGRFTISRDNSKNTLYLQMNSLRAEDTAVYYCAKVLGWFDYWGQGTLVTVSS
VL: EIVLTQSPGTLSLSPGERATLSCRASQSVSSYYLAWYQQKPGQAPRLLISGAGSRATGIPDRFSGSGSGTDFTLTISRLEPEDFAVYYCQQYGYPPDFTFGQGTKVEIK
Consider B1, for which the binding result is listed as “binds”.

B2: Mab 44 (antibody, V domains shown)
VH: EVQLLESGGGLVQPGGSLRLSCAASGFTFSSAPMGWVRQAPGKGLEWVSAISYIGHTYYADSVKGRFTISRDNSKNTLYLQMNSLRAEDTAVYYCAKVLGWFDYWGQGTLVTVSS
VL: B1 VL with S31D, Y32E, A35S, S50H, G51S, G53S, S54T, T75A
For B2, the binding result is on record as “binds”.

B3: Mab 14 (antibody, V domains shown)
VH: B1 VH
VL: B1 VL with S31D, Y32E, A35S, S50H, G51S, G53S, S54T, T75A
Turning to B3, the binding result was “binds”.

B4: Mab 28 (antibody, V domains shown)
VH: B2 VH
VL: B1 VL
Turning to B4, the binding result is given as “binds”.
